Binding data for two molecules are collected here from US20180134781A1.

No constants are given. Whether binding was seen depends on the method and setting. Some binding calls cover weakened binding; strength is not graded here.

Experiment [1] concerns the target T1, series of linear peptides which contain common sequence 150…159 (human).
T1 sequence (peptide): QRQRREMVAQ
In words: Pepscan ELISA, HiSense linear peptide array, 1 µg/ml antibody. (In an ELISA, binding on a coated surface is turned into a signal by an enzyme label.)

In experiment [2] the target is monkey ANGPTL8 expressed with C-terminal mouse IgG2a Fc tag (cynomolgus monkey). In words: BLI (Octet HTX), mFc protein captured on AMC sensor, 100 nM mAb, 25 C. (In general: Biolayer interferometry detects binding as a change in optical thickness at a sensor tip.)

B1: H4H15341P (antibody, human IgG4, V domains shown)
VH: EVQLVESGGGLVQPGGSLRLSCAASGFTFNNHEMNWVRQAPGKGLEWVSYISSSGNTVTYADFLKGRFTISRDNAKNSLFLQMNSLRDEDTAVYYCARDHLSGTSPLSYWGQGTLVTVSS
VL: DIQMTQSPSSLSASVGDRVTITCQASQDINNYLNWFQQKPGKAPKLLIFDASNLETGVPSRFSGSGSGTDFTFTISSLQPEDIATYFCQQYENLPYTFGQGTKLEIK
For B1, the binding entry in experiment [1] is “binds”.

B2: H4H15335P (antibody, human IgG4, V domains shown)
VH: QVQLVESGGGVVQPGRSLRLSCAASGFTFNNYGIHWVRQAPGKGLEWVAVISYDESNKYYADSVKGRFTISRDNSKNTLYLQMNSLRAEDTAVYYCAKDIRIAARRHYYYYGMDVWGQGTTVTVSS
VL: DIQMTQSPSSVSASVGDRVTITCRASQGISRWLAWYQQKPGKAPKLLIYAASSLESGVPARFSGSGSGTDFTLTISSLQPEDFATYYCQQANSFPITFGPGTKVDIK
Regarding B2, the binding result in experiment [2] is recorded as “binds”.
